One assay deals with GST-SCP4 fusion protein (UniProt Q05D32). In words: pull-down; in vitro translated HA-Snail incubated with purified glutathione bead-bound GST or GST-SCP4; western blot; only the target purified.
Assay [1] has as its target FLAG-SCP4 wild type, full length (HEK293T) (UniProt Q05D32). Description: co-IP; HEK293T co-transfected with HA-Snail and FLAG-SCP4 or FLAG-SCP4DN; anti-FLAG IP with protein A Sepharose at 4°C for 4 h in Myc lysis buffer (137 mM NaCl, 20 mM Tris-HCl pH 8.0, 1% Nonidet P-40); blot for Snail.
Assay [2] concerns the target FLAG-SCP4DN, phosphatase-dead mutant (D293E, D295N) (HEK293T) (UniProt Q05D32). The description is as above.
Assay [3] concerns the target HA-Snail (stably expressed in MCF10A cells) (UniProt O95863). Description: co-IP; lysates of MCF10A cells stably expressing HA-Snail immunoprecipitated with anti-HA antibody or control IgG; western blot for endogenous SCP4. (In western blotting, separated proteins are transferred to a membrane and probed.)
Assay [4] has as its target Full length GST-Snail fusion protein (UniProt O95863). Description: pull-down; in vitro translated FLAG-SCP4 incubated with purified glutathione bead-bound GST, GST-Snail, GST-Snail-1-153 or GST-Snail-153-264; western blot; only the target purified.
In a further assay the target is GST-Snail-1-153 (UniProt O95863). The assay is described as above.
The target of a further assay is GST-Snail-153-264 (UniProt O95863). The assay is described as above.
The target in assay [5] is HA-Snail wild type, full length (HEK293T) (UniProt O95863). In words: co-IP; HEK293T co-transfected with HA-Snail (wild type or deletion mutants) and FLAG-SCP4 or FLAG-SCP4DN; anti-HA IP of Snail; blot for Snail-bound SCP4.
Assay [6] concerns the target HA-Snail-1-153 (N-terminal region of Snail) (UniProt O95863). Described as above.
Assay [7] deals with HA-Snail-153-264 (C-terminal region of Snail) (UniProt O95863). Described as above.

The chains behind the UniProt entries cited, without tags or fusion partners. Where a name states a change or a piece, a line headed by the entry shows the natural chain unless it says otherwise. Residues count along the entry.
UniProt Q05D32: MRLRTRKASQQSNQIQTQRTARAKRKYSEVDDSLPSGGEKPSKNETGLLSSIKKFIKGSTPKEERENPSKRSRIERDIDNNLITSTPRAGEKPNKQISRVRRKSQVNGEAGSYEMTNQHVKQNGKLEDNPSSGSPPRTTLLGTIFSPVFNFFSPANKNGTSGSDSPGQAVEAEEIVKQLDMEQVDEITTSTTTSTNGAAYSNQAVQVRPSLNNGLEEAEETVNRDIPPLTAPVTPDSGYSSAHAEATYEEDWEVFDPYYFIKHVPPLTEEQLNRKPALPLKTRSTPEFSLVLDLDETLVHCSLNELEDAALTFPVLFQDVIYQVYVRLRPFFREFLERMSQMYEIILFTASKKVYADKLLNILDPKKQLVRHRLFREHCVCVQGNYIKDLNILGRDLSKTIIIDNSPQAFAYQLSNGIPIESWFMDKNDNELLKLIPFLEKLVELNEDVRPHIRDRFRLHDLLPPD
UniProt O95863: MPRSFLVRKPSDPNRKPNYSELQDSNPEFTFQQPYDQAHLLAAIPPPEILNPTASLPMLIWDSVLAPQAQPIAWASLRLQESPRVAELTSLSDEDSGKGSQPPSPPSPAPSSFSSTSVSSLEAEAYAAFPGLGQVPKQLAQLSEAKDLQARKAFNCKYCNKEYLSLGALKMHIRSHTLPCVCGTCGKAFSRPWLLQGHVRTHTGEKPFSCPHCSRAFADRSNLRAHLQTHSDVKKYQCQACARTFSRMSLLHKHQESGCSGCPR
HA-Snail-1-153 (N-terminal region of Snail): residues 1-153 of O95863
HA-Snail-153-264 (C-terminal region of Snail): residues 153-264 of O95863

These are yes or no findings as the source states them, for the method shown. In cells and extracts the contact can be indirect. Some results given as binding are weak or reduced against the parent protein; the word gives no strength.

As for “in vitro translated HA-Snail (from UniProt O95863 1-264)”, the binding entry with GST-SCP4 fusion protein is on record as “binds”.
“HA-Snail wild type, full length (HEK293T) (from UniProt O95863 1-264)”: the binding entry in assay [1] and in [2] was “binds” throughout.
Consider “endogenous SCP4 (CTDSPL2, C-terminal domain small phosphatase-like 2) (from UniProt Q05D32 1-466) (enzyme)”, for which the binding result in assay [3] is recorded as “binds”.
On to “in vitro translated FLAG-SCP4 (from UniProt Q05D32 1-466) (enzyme)”, for which the figures for the binding result (in assay [4]; with GST-Snail-1-153; with GST-Snail-153-264) were “binds”, “binds” and “binds weakly”, respectively.
On to “FLAG-SCP4 wild type, full length (HEK293T) (from UniProt Q05D32 1-466) (enzyme)”, for which the binding result in assay [5] was “binds”; in [6], “binds”; in assay [7], “binds weakly”.
As for “FLAG-SCP4DN, phosphatase-dead mutant (D293E, D295N) (HEK293T) (from UniProt Q05D32 1-466) (enzyme)”, the binding entry in assay [5] is listed as “binds”.

Source of the values: article PMC5936716.
